# Data published in paper PMC11247741.
# Sequences of proteins named here, by UniProt entry; tags and fusion partners are left off.
# UniProt P52480: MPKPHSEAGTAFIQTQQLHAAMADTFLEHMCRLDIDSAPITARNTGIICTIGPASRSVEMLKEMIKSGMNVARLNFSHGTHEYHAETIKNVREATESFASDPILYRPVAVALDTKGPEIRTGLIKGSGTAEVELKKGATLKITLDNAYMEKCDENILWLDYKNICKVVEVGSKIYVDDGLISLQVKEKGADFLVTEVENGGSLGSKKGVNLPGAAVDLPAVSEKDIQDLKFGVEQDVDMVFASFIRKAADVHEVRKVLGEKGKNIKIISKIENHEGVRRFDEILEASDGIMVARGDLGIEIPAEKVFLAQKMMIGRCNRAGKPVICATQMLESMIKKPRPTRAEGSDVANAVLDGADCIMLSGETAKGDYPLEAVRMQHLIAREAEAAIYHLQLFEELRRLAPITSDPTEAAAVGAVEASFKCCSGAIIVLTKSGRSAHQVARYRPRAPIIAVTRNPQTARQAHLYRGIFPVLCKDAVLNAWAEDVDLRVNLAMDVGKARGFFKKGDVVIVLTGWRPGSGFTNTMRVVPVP
# Target: T1, Sirt2 (NAD-dependent deacetylase sirtuin-2), endogenous mouse (mouse (endogenous in liver and AML12)) (UniProt Q8VDQ8)
# T1 sequence: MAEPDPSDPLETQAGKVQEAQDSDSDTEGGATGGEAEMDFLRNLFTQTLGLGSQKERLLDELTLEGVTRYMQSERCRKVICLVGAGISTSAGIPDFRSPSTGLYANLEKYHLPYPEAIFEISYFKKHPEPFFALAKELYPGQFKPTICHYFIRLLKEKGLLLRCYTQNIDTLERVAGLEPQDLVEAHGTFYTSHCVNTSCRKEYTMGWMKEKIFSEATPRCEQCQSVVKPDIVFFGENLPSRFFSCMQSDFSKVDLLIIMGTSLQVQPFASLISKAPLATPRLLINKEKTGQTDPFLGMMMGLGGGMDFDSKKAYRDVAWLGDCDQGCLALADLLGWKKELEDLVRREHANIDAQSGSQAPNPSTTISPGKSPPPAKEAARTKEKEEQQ
# Experiment: affinity purification with mass spectrometry; IP-MS of liver tissues of wild-type mice; the precipitating antibody is not told
substance,measurement,value
"PKM2 (M2 isoform of pyruvate kinase), endogenous mouse (from UniProt P52480 1-531)",binding,binds

# No constants are given. Whether binding was seen depends on the method and setting. Binding seen in cells or lysates may run through a third protein. A yes stands for co-enrichment or nearness to the bait. Other partners may have been found.
